From the supplement of paper PMC10849652
The other results are listed elsewhere or left out. Residues, ends and D or L forms follow the SMILES beside them. *: point of attachment. Cbz = O=C(OCc1ccccc1)*

By UniProt entry, the sequences of proteins in these tests, tags left out. Where a name states a change or a piece, a line headed by the entry shows the natural chain unless it says otherwise.
UniProt Q9HBF4: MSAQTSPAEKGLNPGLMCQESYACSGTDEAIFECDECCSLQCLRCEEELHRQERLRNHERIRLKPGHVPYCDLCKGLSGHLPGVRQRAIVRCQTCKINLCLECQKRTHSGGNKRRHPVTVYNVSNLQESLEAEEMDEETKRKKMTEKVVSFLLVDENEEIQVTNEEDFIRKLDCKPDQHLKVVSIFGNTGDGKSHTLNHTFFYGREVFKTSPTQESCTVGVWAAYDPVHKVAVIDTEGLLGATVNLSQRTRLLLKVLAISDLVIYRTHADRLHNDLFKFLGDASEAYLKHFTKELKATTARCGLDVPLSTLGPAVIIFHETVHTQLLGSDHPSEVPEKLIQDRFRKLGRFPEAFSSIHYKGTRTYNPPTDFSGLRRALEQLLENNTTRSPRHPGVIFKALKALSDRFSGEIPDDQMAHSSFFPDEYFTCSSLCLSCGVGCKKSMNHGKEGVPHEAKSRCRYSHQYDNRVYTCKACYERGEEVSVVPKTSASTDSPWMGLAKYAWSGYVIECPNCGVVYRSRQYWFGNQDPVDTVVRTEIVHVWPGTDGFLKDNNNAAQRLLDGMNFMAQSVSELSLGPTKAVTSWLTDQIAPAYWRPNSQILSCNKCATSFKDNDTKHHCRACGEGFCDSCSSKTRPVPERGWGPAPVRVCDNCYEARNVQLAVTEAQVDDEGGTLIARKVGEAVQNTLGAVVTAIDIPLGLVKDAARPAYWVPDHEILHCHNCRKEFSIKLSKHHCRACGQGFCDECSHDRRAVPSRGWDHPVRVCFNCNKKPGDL
UniProt Q5W0Z9: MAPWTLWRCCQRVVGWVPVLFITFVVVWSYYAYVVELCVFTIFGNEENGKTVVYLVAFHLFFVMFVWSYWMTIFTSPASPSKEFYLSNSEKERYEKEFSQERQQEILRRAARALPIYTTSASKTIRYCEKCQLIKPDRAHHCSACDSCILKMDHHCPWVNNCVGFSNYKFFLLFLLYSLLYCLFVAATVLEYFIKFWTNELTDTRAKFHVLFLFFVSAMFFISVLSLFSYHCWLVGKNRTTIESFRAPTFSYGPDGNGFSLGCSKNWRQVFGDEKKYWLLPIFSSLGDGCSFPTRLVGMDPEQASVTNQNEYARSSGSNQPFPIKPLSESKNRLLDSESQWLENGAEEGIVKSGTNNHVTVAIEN
UniProt O95619, whole entry, looked up: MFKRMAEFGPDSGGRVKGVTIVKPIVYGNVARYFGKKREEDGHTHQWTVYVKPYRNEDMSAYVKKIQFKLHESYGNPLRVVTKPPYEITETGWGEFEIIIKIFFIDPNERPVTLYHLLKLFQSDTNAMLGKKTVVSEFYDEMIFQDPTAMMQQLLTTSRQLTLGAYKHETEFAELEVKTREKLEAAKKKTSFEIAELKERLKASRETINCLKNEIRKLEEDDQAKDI
UniProt Q8N4Q0: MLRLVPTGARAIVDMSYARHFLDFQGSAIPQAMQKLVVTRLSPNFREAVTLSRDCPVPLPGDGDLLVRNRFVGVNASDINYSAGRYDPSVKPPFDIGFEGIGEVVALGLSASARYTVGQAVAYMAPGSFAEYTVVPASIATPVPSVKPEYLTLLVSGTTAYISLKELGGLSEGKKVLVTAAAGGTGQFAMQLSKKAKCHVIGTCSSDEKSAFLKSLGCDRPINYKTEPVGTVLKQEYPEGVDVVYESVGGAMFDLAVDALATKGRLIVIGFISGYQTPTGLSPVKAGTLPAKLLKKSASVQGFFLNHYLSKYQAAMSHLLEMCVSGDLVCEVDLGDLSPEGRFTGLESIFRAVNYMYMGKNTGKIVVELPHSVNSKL
UniProt Q9NQH7: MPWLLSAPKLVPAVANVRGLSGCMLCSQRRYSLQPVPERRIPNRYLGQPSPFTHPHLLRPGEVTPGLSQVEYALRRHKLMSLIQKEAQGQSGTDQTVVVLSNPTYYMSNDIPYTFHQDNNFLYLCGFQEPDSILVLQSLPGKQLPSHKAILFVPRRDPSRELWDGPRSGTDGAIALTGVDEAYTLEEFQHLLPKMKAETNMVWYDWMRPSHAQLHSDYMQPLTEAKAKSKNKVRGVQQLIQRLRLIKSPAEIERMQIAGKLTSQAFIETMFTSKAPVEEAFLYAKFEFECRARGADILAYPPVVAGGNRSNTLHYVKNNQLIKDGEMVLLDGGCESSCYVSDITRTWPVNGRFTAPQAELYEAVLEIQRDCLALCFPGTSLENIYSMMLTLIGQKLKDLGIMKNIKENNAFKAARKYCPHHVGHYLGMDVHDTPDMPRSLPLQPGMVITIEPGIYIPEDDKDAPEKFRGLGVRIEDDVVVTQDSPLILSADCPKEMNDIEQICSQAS
UniProt Q16600: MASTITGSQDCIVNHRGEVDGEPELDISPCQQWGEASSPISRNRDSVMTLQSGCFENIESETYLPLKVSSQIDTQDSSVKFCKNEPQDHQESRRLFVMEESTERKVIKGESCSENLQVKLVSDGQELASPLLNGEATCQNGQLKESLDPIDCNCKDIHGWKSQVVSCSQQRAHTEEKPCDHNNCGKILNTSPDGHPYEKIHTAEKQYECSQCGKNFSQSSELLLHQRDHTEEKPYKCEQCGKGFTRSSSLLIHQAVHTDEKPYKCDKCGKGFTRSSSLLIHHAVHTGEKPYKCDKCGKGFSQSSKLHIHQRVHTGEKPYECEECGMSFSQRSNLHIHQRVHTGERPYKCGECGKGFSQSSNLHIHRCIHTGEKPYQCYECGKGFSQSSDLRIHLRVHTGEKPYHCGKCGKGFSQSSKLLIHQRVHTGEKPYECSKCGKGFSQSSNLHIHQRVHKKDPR
UniProt Q9NPG8: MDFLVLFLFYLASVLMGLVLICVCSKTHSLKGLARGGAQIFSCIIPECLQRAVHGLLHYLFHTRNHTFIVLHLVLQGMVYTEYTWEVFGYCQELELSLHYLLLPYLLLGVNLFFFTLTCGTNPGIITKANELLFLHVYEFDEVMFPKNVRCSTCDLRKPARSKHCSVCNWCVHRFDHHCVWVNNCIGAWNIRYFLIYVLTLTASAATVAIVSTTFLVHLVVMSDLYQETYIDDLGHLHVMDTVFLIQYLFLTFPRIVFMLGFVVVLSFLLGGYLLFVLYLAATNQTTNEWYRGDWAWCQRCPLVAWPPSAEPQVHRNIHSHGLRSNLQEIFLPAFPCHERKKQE
UniProt Q9H6S0: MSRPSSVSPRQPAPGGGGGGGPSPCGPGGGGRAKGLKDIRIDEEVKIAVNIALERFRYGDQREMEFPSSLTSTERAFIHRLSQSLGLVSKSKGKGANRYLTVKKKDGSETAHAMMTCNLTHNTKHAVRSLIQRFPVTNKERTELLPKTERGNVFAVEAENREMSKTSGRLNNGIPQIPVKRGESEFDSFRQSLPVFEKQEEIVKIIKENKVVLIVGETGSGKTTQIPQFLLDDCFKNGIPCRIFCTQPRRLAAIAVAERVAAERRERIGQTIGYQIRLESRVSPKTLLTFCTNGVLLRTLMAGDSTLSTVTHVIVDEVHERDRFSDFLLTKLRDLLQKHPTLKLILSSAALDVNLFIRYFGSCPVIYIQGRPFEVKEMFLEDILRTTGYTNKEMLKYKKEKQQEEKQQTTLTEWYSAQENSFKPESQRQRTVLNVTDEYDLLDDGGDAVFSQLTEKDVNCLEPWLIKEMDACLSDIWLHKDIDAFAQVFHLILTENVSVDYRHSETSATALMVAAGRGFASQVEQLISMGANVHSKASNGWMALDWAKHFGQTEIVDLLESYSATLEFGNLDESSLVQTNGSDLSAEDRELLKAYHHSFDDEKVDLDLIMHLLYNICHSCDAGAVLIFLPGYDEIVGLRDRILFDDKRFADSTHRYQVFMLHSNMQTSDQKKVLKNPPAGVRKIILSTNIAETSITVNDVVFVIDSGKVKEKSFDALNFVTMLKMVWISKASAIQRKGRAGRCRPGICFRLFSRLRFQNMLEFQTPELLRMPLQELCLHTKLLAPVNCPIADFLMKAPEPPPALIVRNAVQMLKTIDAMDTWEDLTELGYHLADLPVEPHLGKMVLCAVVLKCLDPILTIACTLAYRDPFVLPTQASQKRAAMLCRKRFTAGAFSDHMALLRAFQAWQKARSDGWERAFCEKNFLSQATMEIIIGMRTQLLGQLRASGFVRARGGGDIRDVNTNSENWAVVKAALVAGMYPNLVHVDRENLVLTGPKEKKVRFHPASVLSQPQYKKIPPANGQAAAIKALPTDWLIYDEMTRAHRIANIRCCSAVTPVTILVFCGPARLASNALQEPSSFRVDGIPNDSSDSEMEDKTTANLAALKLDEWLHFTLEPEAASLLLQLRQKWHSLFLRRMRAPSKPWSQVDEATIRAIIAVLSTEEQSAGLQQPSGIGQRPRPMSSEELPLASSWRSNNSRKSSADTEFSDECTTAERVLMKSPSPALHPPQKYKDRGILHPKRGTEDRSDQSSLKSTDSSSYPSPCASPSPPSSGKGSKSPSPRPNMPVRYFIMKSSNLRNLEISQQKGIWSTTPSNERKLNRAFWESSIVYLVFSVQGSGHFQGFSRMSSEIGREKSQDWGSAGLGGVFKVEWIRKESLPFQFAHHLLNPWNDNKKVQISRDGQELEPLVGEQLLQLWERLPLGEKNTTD
UniProt O75362: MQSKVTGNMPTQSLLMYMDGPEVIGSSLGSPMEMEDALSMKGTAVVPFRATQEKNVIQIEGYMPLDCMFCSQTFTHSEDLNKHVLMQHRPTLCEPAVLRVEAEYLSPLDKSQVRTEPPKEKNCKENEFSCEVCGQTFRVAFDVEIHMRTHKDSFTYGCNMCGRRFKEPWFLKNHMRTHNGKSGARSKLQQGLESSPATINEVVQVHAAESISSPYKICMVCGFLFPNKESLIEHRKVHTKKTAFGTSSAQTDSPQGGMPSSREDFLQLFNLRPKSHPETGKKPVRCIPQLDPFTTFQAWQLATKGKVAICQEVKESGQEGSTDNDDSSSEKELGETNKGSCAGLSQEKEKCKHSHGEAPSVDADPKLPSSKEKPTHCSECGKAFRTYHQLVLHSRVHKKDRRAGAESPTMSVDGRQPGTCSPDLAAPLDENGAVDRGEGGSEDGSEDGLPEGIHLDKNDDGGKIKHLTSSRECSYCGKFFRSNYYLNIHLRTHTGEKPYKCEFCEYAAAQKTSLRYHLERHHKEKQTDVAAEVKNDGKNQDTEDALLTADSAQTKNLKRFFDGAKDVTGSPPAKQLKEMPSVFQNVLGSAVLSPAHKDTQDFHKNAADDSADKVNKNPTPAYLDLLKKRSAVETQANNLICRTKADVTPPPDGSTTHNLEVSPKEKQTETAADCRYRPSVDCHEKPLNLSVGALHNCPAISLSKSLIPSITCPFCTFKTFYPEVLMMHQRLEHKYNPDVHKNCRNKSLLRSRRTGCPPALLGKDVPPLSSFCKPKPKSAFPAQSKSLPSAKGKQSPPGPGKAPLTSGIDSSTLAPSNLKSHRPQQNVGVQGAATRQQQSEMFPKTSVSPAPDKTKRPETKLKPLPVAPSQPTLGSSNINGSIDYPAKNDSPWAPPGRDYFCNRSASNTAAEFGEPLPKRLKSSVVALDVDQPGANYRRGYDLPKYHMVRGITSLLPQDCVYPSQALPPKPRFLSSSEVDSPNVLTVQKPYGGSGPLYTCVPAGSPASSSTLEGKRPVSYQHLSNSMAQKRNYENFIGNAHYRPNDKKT
UniProt Q96GR4: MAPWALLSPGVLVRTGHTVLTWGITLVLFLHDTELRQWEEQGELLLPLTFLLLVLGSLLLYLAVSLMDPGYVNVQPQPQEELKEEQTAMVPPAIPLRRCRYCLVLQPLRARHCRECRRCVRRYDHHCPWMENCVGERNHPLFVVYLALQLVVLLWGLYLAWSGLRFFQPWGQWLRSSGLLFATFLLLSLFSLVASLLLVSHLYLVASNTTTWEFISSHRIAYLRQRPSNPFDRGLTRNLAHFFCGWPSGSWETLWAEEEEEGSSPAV
UniProt Q9NQW7: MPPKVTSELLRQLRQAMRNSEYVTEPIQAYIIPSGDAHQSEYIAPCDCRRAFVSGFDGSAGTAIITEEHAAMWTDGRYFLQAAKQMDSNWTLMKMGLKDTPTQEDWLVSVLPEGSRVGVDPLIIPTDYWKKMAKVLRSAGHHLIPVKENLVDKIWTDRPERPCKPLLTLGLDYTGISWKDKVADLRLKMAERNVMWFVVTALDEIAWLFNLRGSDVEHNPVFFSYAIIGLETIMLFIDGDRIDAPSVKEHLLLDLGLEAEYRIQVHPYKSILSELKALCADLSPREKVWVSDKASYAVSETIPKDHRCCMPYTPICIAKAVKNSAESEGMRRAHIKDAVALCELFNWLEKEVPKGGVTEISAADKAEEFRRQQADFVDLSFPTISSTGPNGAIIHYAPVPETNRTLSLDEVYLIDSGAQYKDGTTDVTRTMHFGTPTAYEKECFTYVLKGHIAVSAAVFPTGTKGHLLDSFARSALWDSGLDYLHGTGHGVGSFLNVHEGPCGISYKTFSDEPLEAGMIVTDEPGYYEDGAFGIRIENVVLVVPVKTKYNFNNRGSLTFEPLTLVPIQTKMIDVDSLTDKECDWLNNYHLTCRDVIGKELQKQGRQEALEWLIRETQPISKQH

Key:
Assay in all cases: log2 fold change, soluble protein after heating vs DMSO (PISA); higher = thermal stabilisation; K562 cells, 10 uM, 30 min; active = over 0.2 and 3.5 SD of the protein, either way, in both replicates (recomputed)
[1] = compound: C1COCCN1CCN2C3=CC=CC=C3N=C2NC(=O)C4=CC(=CC=C4)[N+](=O)[O-] [IRAK-1-4 Inhibitor I]
Method in brief: (§1)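 Soluble protein was defined as the supernatant after 21,000xg for 90 min. It came from K562 cells at 2×10^6 cells/mL given 10 μM compound for 30 min, heated in aliquots for 3 min across 48°C-58°C, pooled, and extracted in PBS with 0.5% NP-40 at 4°C, and was quantified by TMTpro 16plex LC-MS/MS with equalised channel sums. Thermal stability against control samples, from duplicates, is reported as log2 fold change.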

[2] = compound: C=CC(=O)N1CCC[C@@H](n2nc(-c3ccc(Oc4ccccc4)cc3)c3c(N)ncnc32)C1 [ibrutinib]
Method in brief: as §1

[3] = compound: CC(=O)c1cnc2ccc(-c3cc(Cl)c(O)c(Cl)c3)nc2c1N[C@H]1CC[C@H](CN(C)C)CC1
Method in brief: as §1

[4] = compound: CC(C)(C)Cn1c(N)nc2ccc(-c3[nH]c(C(C)(C)C)nc3-c3ccc(F)cc3)nc21 [ralimetinib]
Method in brief: as §1

[5] = compound: CC(C)(O)CC(=O)NCCn1ccc2ncnc(Nc3ccc(Oc4cccc(C(F)(F)F)c4)c(Cl)c3)c21
Method in brief: as §1

[6] = compound: CC(C)C1=C2N=C(C=C(N2N=C1)NCC3=CC=CC=C3)NCCCCCCN
Method in brief: as §1

[7] = compound: CC(C)C[C@@H](C=O)NC(=O)[C@H](CC(C)C)NC(=O)[C@H](CC(C)C)NC(=O)OCc1ccccc1
Method in brief: as §1

[8] = compound: CC(C)N(C[C@H]1O[C@@H](n2cnc3c(N)ncnc32)[C@H](O)[C@@H]1O)[C@H]1C[C@@H](CCc2nc3cc(C(C)(C)C)ccc3[nH]2)C1 [pinometostat]
Method in brief: as §1

[9] = compound: CC1=C(C2=C(C=C1)C(=O)C3=CC=CC=C3N2CCCN)C
Method in brief: as §1

[10] = compound: CC1=C(C(CC(=O)N1)C2=CC=C(C=C2)C(F)(F)F)C(=O)NC3=C(C=C4C(=C3)C=NN4)F
Method in brief: as §1

Measured: log2 fold change

YWHAQ (UniProt P27348)
inactive: [1] 0.084 | [2] 0.002 | [3] 0.118 | [4] 0.237 | [5] -0.084 | [6] -0.026 | [7] -0.184 | [8] -0.067 | [9] -0.055

ZFYVE1 (UniProt Q9HBF4)
inactive: [1] -0.005 | [2] -0.035 | [3] -0.109 | [4] -0.014 | [5] -0.236 | [6] -0.05 | [7] 0.087 | [8] -0.045 | [10] -0.031 | [9] 0

ZDHHC20 (UniProt Q5W0Z9)
inactive: [1] -0.044 | [2] -0.004 | [3] 0.026 | [4] -0.187 | [5] -0.082 | [6] -0.229 | [7] -0.153 | [8] 0.025 | [9] 0.028

YDJC (UniProt A8MPS7)
inactive: [1] 0.013 | [2] 0.064 | [3] -0.002 | [4] 0.056 | [5] -0.015 | [6] -0.073 | [7] -0.027 | [8] -0.031 | [10] -0.025 | [9] 0.009

XPO7 (UniProt E7ESC6)
inactive: [1] 0.05 | [2] -0.004 | [3] 0.023 | [4] -0.042 | [5] -0.014 | [6] -0.017 | [7] -0.053 | [8] -0.021 | [10] 0.002 | [9] -0.066

ZC3HC1 (UniProt Q86WB0)
inactive: [1] -0.017 | [2] -0.041 | [3] -0.165 | [4] 0.035 | [5] -0.179 | [6] -0.151 | [7] -0.101 | [8] -0.005 | [9] -0.091

YIPF5 isoform 3 (UniProt Q969M3)
inactive: [1] -0.035 | [2] -0.005 | [3] 0.023 | [4] -0.292 | [5] -0.094 | [6] 0.008 | [7] -0.012 | [8] 0.016 | [9] -0.006

YEATS4 (UniProt O95619)
inactive: [1] -0.017 | [2] -0.008 | [3] -0.016 | [4] -0.029 | [5] 0.075 | [6] 0.153 | [7] 0.019 | [8] -0.004 | [10] -0.095 | [9] -0.029

YAE1 (UniProt Q9NRH1)
inactive: [1] 0.103 | [2] -0.008 | [3] 0.078 | [4] 0.023 | [5] 0.072 | [6] 0.057 | [7] 0.007 | [8] 0.011 | [9] 0.022

ZADH2 (UniProt Q8N4Q0)
inactive: [1] 0.036 | [2] 0.125 | [3] -0.131 | [4] 0.169 | [6] -0.019 | [7] -0.045 | [8] 0 | [9] 0.038
active: [5] -0.323

XPR1 (UniProt Q9UBH6)
inactive: [1] 0.079 | [2] 0.041 | [3] -0.066 | [4] -0.017 | [5] 0.023 | [6] 0.1 | [7] -0.006 | [8] -0.019 | [10] -0.007 | [9] 0.079

ZER1 (UniProt Q7Z7L7)
inactive: [1] 0.025 | [2] 0.001 | [3] 0.009 | [4] 0.089 | [5] -0.104 | [6] -0.072 | [7] 0.039 | [8] 0.098 | [9] -0.017

XPO1 (UniProt O14980)
inactive: [1] -0.013 | [2] -0.045 | [3] 0.011 | [4] 0.018 | [5] -0.196 | [7] -0.04 | [8] -0.013 | [9] -0.011
active: [6] -0.282

XPNPEP3 (UniProt Q9NQH7)
inactive: [1] 0.061 | [2] 0.044 | [3] 0.019 | [4] -0.013 | [5] 0.021 | [6] -0.002 | [7] -0.018 | [8] -0.015 | [9] -0.028

ZMAT2 (UniProt Q96NC0)
inactive: [1] 0.11 | [2] 0.025 | [3] -0.001 | [4] -0.024 | [5] -0.016 | [6] 0.138 | [7] 0.049 | [8] -0.037 | [9] -0.04

ZNF239 (UniProt Q16600)
inactive: [1] 0.154 | [2] 0.165 | [3] -0.439 | [4] -0.07 | [5] 0.086 | [6] 0.149 | [7] 0.045 | [8] -0.008 | [9] 0.011

ZC3H18 (UniProt Q86VM9)
inactive: [1] -0.036 | [2] 0.002 | [3] -0.155 | [4] 0.03 | [5] 0.034 | [6] -0.122 | [7] -0.042 | [8] 0.053
active: [9] -0.612

YY1 (UniProt P25490)
inactive: [1] -0.026 | [2] -0.032 | [3] -0.084 | [4] 0.002 | [5] -0.026 | [7] 0.091 | [8] 0.02
active: [6] -0.24 | [9] -0.433

XPO4 (UniProt Q9C0E2)
inactive: [1] 0.017 | [2] -0.03 | [3] 0.065 | [4] -0.035 | [5] -0.07 | [6] -0.049 | [7] -0.037 | [8] -0.018 | [10] -0.003 | [9] -0.08

ZMYND8 isoform 19 (UniProt Q9ULU4)
inactive: [1] 0.037 | [2] -0.043 | [5] -0.028 | [6] -0.288 | [8] 0.038

ZDHHC4 (UniProt Q9NPG8)
inactive: [1] 0.079 | [2] 0.062 | [5] -0.15 | [6] 0.082 | [8] -0.113

YOD1 (UniProt Q5VVQ6)
inactive: [1] 0.019 | [2] -0.016 | [3] -0.04 | [4] -0.001 | [5] -0.113 | [6] -0.153 | [7] 0.045 | [8] -0.021 | [9] 0.063

ZFYVE9 (UniProt O95405)
inactive: [1] 0.034 | [2] -0.105 | [4] -0.008 | [5] -0.019 | [6] -0.389 | [7] -0.036 | [8] -0.141 | [10] -0.064 | [9] 0.073

ZEB2 (UniProt O60315)
inactive: [1] 0.02 | [2] 0.029 | [4] -0.075 | [5] 0.034 | [6] -0.187 | [7] 0.131 | [8] 0.06
active: [9] -0.476

ZFAND1 (UniProt Q8TCF1)
inactive: [1] 0.141 | [2] -0.019 | [4] 0.306 | [6] -0.138 | [7] -0.307 | [8] 0.235 | [10] -0.005 | [9] -0.088

YIPF4 (UniProt Q9BSR8)
inactive: [1] 0.093 | [2] 0.009 | [3] -0.197 | [4] -0.099 | [5] -0.012 | [6] -0.032 | [7] -0.016 | [8] -0.031 | [9] 0.215

YBX1 (UniProt C9J5V9)
inactive: [1] 0.049 | [3] -0.085 | [8] -0.093

YTHDC2 (UniProt Q9H6S0)
inactive: [1] -0.219 | [3] -0.11 | [5] 0.097 | [8] 0.328

ZNF217 (UniProt O75362)
inactive: [1] 0.052 | [2] -0.028 | [3] -0.125 | [4] -0.012 | [5] -0.122 | [6] -0.034 | [7] 0.024 | [8] 0.002 | [9] -0.142

ZMYM3 (UniProt Q14202)
inactive: [1] 0.057 | [2] 0.03 | [3] -0.004 | [4] -0.07 | [5] 0.084 | [6] 0.04 | [7] 0.09 | [8] -0.011 | [9] -0.058

ZDHHC12 isoform 3 (UniProt Q96GR4)
inactive: [1] -0.075 | [3] -0.093 | [8] 0.134 | [9] 0.009

XPNPEP1 isoform 3 (UniProt Q9NQW7)
inactive: [1] 0.07 | [2] -0.002 | [3] -0.011 | [4] -0.03 | [5] -0.016 | [6] -0.135 | [7] -0.073 | [8] -0.006 | [9] 0.045

YWHAZ (UniProt E7ESK7)
inactive: [1] 0.005 | [2] -0.167 | [3] -0.081 | [4] -0.031 | [5] 0.021 | [7] 0.019 | [8] -0.035 | [9] 0.029

ZNF131 (UniProt P52739)
inactive: [1] -0.07 | [2] 0.056 | [4] -0.141 | [5] 0.112 | [7] 0.079 | [8] 0.127

Two successive entries already listed, for reference:
ZMYM3 (UniProt Q14202)
inactive: [1] 0.057 | [2] 0.03 | [3] -0.004 | [4] -0.07 | [5] 0.084 | [6] 0.04 | [7] 0.09 | [8] -0.011 | [9] -0.058

ZDHHC12 isoform 3 (UniProt Q96GR4)
inactive: [1] -0.075 | [3] -0.093 | [8] 0.134 | [9] 0.009

Later entries

ZDHHC2 (UniProt Q9UIJ5)
inactive: [1] -0.116 | [2] -0.082 | [4] -0.037 | [7] -0.06 | [8] 0.035 | [10] -0.054
